# Test system: S. pombe culture
# Experiment: Succinate capping of alpha-tocotrienol hydroquinone in yeast (Example 3), LCMS/MS
# Assay type: cell-based
Compound,"p-dHQ/(p-dHQ+p-Q) ratio, based on [bis-succinate]/([bis-succinate]+[quinone]) (S. pombe cultures after 16 hrs, treated with alpha-tocotrienol quinone (1 μM) 5 hours before harvesting, succinic anhydride capping, normalized for OD)","Unesterified hydroquinone (p-HQ) relative to bis-succinate (all samples, S. pombe treated with alpha-tocotrienol quinone (1 μM) for 5 hours, after succinic anhydride capping)"
CC(C)=CCC/C(C)=C/CC/C(C)=C/CC[C@@](C)(O)CCC1=C(C)C(=O)C(C)=C(C)C1=O [alpha-tocotrienol quinone],0.557+/−0.0012,
"CC(C)=CCC/C(C)=C/CC/C(C)=C/CCC(C)(O)CCc1c(C)c(O)c(C)c(C)c1O (stereo not drawn) [Unesterified hydroquinone, alpha-tocotrienol hydroquinone]",,less than 1%

# Reference: patent US20190241497A1, “METHODS FOR ANALYZING P-HYDROQUINONE LEVELS AND RATIOS” (priority 2017, published 2019)
